Data reported in paper PMC4914303.
These are yes or no findings as the source states them, for the method shown. Binding seen in cells or lysates may run through a third protein. Some results given as binding are weak or reduced against the parent protein; the word gives no strength.

Chains of the proteins cited; added tags and fusions are not shown.
UniProt Q9NS91: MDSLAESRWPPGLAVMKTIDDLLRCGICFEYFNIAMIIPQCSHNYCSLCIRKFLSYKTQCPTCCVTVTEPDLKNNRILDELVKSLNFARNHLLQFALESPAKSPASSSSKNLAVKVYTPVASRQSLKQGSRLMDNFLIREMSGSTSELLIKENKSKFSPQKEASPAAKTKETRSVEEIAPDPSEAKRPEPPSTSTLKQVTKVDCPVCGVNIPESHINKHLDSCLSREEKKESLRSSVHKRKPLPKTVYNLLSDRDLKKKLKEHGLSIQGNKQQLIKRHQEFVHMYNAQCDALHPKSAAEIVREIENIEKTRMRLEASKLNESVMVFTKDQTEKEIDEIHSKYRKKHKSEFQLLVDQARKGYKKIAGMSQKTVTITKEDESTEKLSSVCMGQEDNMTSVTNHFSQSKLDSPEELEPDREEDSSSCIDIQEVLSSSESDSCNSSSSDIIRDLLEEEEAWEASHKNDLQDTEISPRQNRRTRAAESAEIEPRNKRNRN
UniProt P51587: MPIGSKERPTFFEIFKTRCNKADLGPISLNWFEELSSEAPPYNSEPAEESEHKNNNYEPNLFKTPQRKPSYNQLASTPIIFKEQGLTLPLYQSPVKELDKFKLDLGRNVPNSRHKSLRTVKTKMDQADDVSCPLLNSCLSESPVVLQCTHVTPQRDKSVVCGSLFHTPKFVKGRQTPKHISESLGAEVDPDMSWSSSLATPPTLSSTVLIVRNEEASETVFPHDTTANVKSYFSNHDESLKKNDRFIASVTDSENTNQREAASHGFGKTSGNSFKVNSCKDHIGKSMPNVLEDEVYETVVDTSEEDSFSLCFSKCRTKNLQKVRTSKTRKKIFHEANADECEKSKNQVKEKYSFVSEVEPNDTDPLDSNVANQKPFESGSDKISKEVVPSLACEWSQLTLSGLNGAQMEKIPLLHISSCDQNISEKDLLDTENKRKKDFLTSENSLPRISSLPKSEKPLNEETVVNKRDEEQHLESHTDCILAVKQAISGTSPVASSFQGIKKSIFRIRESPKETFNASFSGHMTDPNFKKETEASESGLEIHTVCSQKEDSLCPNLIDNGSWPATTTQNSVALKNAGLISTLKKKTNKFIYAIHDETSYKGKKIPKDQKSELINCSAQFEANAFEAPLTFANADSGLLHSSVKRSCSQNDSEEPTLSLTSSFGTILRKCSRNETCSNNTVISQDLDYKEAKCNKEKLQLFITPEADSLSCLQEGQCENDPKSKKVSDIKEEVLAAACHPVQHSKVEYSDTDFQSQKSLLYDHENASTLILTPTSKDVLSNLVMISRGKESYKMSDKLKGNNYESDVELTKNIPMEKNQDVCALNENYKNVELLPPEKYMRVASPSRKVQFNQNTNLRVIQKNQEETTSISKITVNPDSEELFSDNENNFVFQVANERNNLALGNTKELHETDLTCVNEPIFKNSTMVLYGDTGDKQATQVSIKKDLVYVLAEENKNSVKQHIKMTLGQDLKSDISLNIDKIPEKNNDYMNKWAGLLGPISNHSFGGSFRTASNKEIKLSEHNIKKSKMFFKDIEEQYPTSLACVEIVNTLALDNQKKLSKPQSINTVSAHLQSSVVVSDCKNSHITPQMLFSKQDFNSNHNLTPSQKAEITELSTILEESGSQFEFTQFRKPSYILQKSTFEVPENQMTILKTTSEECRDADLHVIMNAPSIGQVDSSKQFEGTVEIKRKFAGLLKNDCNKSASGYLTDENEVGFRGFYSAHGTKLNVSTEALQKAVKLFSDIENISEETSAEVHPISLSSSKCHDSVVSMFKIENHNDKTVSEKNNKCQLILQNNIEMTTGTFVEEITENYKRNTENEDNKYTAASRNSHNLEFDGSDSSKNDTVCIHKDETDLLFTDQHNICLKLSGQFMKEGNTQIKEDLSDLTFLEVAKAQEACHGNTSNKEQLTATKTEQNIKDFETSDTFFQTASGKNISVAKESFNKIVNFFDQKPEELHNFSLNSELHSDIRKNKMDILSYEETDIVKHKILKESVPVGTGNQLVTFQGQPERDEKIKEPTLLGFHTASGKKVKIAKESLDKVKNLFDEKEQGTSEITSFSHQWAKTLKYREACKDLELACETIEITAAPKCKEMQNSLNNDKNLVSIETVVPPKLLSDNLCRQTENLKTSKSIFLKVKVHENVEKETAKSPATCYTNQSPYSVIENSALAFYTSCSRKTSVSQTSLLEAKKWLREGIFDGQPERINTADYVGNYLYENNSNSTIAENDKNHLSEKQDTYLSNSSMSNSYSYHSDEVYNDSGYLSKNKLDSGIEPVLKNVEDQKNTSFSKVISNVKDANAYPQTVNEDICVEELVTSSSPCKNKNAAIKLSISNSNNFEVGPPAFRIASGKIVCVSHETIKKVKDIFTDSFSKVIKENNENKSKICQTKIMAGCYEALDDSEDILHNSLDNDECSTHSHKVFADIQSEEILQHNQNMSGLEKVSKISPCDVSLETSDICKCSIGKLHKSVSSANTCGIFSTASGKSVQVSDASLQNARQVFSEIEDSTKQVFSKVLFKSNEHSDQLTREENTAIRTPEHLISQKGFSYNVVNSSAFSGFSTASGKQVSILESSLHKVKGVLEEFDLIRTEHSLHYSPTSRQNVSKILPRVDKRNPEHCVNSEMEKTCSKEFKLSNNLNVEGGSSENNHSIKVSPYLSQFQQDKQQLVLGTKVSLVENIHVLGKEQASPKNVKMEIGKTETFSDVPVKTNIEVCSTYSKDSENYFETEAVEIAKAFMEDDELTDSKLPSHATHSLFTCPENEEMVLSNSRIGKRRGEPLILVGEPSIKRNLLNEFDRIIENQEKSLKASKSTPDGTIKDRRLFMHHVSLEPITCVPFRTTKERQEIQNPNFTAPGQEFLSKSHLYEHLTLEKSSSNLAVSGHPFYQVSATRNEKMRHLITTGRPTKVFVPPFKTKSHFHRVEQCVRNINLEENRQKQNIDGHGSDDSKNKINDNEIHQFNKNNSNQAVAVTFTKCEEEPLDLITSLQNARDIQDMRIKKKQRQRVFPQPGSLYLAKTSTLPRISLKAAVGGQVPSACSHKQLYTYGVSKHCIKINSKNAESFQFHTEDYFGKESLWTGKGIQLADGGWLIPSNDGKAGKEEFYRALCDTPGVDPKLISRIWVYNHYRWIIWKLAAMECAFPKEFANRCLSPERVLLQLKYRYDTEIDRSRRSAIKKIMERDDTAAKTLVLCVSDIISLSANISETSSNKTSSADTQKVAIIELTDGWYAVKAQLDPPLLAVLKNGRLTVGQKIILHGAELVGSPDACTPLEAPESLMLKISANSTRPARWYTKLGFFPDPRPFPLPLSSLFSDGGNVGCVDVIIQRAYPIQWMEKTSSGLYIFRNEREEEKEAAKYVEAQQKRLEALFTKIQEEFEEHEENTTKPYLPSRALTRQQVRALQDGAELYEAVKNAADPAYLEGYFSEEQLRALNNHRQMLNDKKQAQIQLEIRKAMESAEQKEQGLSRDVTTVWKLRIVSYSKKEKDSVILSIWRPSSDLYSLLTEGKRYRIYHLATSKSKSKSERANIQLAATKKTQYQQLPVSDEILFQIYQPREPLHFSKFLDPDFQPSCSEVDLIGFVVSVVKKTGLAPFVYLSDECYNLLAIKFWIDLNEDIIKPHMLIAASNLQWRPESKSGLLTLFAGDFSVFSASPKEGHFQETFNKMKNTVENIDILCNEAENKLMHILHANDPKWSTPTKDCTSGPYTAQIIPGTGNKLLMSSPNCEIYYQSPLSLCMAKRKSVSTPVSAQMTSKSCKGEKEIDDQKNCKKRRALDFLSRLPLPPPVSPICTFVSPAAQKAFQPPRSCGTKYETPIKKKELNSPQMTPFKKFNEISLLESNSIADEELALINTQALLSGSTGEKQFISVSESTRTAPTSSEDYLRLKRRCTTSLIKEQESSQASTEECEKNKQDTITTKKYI
UniProt Q9BXW9: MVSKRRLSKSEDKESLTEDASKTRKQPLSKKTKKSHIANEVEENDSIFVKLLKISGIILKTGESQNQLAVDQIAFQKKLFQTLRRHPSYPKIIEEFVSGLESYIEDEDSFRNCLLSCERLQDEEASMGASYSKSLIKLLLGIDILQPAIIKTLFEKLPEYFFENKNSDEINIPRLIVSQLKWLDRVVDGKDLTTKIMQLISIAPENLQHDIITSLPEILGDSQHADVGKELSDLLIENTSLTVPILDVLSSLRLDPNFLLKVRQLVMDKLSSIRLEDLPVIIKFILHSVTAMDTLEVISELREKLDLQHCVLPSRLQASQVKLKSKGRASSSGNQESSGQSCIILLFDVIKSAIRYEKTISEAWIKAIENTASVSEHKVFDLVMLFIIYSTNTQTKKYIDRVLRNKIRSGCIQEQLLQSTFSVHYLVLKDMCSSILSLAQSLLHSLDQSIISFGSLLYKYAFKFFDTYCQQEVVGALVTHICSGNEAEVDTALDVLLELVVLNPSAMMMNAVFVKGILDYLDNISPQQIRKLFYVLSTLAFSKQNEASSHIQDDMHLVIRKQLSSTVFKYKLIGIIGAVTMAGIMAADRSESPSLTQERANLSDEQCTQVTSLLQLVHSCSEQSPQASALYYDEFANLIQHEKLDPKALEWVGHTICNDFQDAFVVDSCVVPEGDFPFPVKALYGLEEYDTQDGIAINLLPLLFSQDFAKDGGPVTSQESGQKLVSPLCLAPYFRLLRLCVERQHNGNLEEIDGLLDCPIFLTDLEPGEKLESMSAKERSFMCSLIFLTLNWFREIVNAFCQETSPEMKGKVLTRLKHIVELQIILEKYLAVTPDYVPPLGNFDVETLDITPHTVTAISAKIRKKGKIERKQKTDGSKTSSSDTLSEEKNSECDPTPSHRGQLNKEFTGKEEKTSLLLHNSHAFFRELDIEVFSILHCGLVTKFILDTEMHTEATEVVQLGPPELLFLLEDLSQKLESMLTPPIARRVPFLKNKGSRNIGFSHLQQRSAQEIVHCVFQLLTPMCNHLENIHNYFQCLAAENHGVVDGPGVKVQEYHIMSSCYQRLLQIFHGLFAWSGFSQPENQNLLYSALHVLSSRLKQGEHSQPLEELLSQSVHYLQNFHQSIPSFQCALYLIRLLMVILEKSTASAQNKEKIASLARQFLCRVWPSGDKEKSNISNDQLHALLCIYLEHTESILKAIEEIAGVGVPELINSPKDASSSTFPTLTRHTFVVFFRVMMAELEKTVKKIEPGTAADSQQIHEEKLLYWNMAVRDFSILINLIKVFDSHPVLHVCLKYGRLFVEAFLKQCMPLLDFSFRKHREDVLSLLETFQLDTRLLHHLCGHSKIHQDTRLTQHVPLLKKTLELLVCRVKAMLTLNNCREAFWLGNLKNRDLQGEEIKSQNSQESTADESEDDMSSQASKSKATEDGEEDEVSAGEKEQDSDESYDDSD
UniProt Q06609: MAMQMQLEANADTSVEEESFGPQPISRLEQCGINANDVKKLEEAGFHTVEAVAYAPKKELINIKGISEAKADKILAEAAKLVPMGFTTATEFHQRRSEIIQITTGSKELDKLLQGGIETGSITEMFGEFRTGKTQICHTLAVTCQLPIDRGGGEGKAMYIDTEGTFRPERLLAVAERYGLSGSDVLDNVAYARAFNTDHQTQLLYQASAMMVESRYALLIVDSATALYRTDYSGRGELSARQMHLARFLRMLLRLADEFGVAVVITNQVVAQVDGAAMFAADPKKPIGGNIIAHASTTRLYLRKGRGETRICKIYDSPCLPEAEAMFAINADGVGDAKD

What was measured:
Assay in all cases: co-IP; endogenous proteins; H1299 cells treated with 500 nM CPT for 2 hours; RIPA lysate (20 mM Tris-HCl pH 7.4, 150 mM NaCl, 1% NP-40); precipitated overnight with antibodies against Rad51, FANCD2, BRCA2 or Rad18, protein A-Sepharose; each precipitate blotted for the other 3 proteins; IgG as negative control
[1] = biological target: Rad18 (human (endogenous in H1299)) (UniProt Q9NS91)
[2] = biological target: BRCA2 (human (endogenous in H1299)) (UniProt P51587)
[3] = biological target: FANCD2 (human (endogenous in H1299)) (UniProt Q9BXW9)
[4] = biological target: Rad51 (human (endogenous in H1299)) (UniProt Q06609)

binding [1] | binding [2] | binding [3] | binding [4] | Substance
binds |  |  |  | BRCA2 (from UniProt P51587 1-3418)
binds |  |  |  | Rad51 (from UniProt Q06609 1-339)
 | binds | binds | binds | Rad18 (from UniProt Q9NS91 1-495)
binds |  |  |  | FANCD2 (from UniProt Q9BXW9 1-1451)
